Assay results as given in paper PMC6347638.
These are yes or no findings as the source states them, for the method shown. Some binding calls cover weakened binding; strength is not graded here. Sequences can lack the tags named with a protein.

Key:
His-SUMO FoxM1 = target: T1, His-SUMO FoxM1 (UniProt Q08050); assay: ELISA; plates coated with 2 μg His-p53 or His-SUMO-FoxM1 (1 h, room temperature), blocked with 3% BSA in PBST, covered with 0.5 μg His-SUMO-SETD3 for 1 h; detected with anti-SETD3 and HRP secondary, absorbance at 450 nm; both purified
T1 sequence: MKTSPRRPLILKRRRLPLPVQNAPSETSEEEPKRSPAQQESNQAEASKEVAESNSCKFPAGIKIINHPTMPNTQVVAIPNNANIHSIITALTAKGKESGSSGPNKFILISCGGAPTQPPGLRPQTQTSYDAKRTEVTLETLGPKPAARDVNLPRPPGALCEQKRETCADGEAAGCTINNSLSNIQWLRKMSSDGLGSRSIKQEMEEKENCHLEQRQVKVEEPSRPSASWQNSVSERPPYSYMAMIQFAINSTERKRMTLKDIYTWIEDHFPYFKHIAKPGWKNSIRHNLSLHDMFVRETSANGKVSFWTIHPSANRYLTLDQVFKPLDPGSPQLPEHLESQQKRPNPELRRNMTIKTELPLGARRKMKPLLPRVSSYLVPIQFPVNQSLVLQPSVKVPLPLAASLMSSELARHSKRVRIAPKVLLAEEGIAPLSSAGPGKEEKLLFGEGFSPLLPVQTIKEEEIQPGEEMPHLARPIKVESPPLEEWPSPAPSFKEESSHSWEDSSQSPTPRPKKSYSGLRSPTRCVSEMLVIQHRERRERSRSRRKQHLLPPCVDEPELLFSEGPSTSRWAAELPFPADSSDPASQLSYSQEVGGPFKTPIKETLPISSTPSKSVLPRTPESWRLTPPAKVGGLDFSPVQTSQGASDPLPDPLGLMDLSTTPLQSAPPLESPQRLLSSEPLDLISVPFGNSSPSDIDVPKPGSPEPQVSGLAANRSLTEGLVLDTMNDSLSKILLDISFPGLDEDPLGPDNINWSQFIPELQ

His-p53 = His-p53 (UniProt P04637); assay: condition: 0.5 μg His-SUMO-SETD3 on 2 μg coated His-p53; ELISA; plates coated with 2 μg His-p53 or His-SUMO-FoxM1 (1 h, room temperature), blocked with 3% BSA in PBST, covered with 0.5 μg His-SUMO-SETD3 for 1 h; detected with anti-SETD3 and HRP secondary, absorbance at 450 nm; both purified

B1: His-SUMO SETD3 (enzyme, UniProt Q86TU7 1-594)
chain: MGKKSRVKTQKSGTGATATVSPKEILNLTSELLQKCSSPAPGPGKEWEEYVQIRTLVEKIRKKQKGLSVTFDGKREDYFPDLMKWASENGASVEGFEMVNFKEEGFGLRATRDIKAEELFLWVPRKLLMTVESAKNSVLGPLYSQDRILQAMGNIALAFHLLCERASPNSFWQPYIQTLPSEYDTPLYFEEDEVRYLQSTQAIHDVFSQYKNTARQYAYFYKVIQTHPHANKLPLKDSFTYEDYRWAVSSVMTRQNQIPTEDGSRVTLALIPLWDMCNHTNGLITTGYNLEDDRCECVALQDFRAGEQIYIFYGTRSNAEFVIHSGFFFDNNSHDRVKIKLGVSKSDRLYAMKAEVLARAGIPTSSVFALHFTEPPISAQLLAFLRVFCMTEEELKEHLLGDSAIDRIFTLGNSEFPVSWDNEVKLWTFLEDRASLLLKTYKTTIEEDKSVLKNHDLSVRAKMAIKLRLGEKEILEKAVKSAAVNREYYRQQMEEKAPLPKYEESNLGLLESSVGDSRLPLVLRNLEEEAGVQDALNIREAISKAKATENGLVNGENSIPNGTRSENESLNQESKRAVEDAKGSSSDSTAGVKE
B1 was tested, and the binding (His-SUMO FoxM1) was “binds” and the binding (His-p53) was “no binding”.
